The target of experiment [1] is KAT6A MYST domain (KAT6A 501–784) (Homo sapiens, UniProt Q92794). Kind of experiment: Steady-state acetyltransferase assay with H3 peptides, KAT6A MYST domain. Particulars: for (kcat/KM): 50 mM HEPES pH 7.5, 5 mM NaCl, 0.1 mM EDTA, 0.002% Tween-20, 20 μM AcCoA, 25 °C, CoA by RapidFire MS, average ± SD of 2 measurements; for Km: KM of peptide at 20 μM AcCoA, conditions as E1; for kcat: conditions as E1, average ± SD of 2 measurements; for fold-change in (kcat/KM) for H3.3 (15-36) versus H3 (1-21) or H3 (19-26) versus H3 (10-17): decrease for K23 peptide relative to K14 peptide. The procedure: (§1) All reactions were multiple-turnover, with substrates in excess (≥10-fold) of enzyme and, unless otherwise stated, were measured at 25 °C in the presence of 50 mM HEPES (pH 7.5), 5 mM NaCl, 0.1 mM EDTA, and 0.002% Tween-20. Enzyme and peptide were allowed to incubate at 25 °C for 10 min before initiating the reaction by adding AcCoA (20 μM). At various times, eight 2 μl aliquots were collected and transferred to 50 μl of 1% formic acid to quench the reaction. Acetyl-CoA and CoA were subsequently detected using a RapidFire 365 high-throughput SPE chromatography system coupled to a 6495 triple quadrupole mass spectrometer (Agilent Technologies) based on procedures described previously ([72], [73]). 42 uL of reaction timepoints were injected onto an Agilent C4 cartridge (40 μm, type A2) in 6 mM octylammonium acetate (GLSynthesis) and eluted with 25% acetonitrile, 25% acetone, and 50% 6 mM octylammonium acetate. RapidFire settings were as follows: aspiration time: 600 ms, load time: 4500 ms, elution time: 8000 ms, and re-equilibration time: 500 ms at a flow rate of 0.8 ml/min.
(§2) Samples were eluted into an Agilent 6495 triple quadrupole mass spectrometer with an Agilent Jet Stream source with ion funnel technology, set in the positive ion mode. A multiple reaction monitoring (MRM) protocol was optimized employing Q1 m/z ratios of 810.1 and 768.05 for acetyl-CoA and CoA, respectively. A second quadruple (Q2) was determined, using house nitrogen as the collision gas (fragmentor voltage = 380 V, collision energy = 30 V) with m/z values of 303.1 and 261.0 for acetyl-CoA and CoA, respectively.
(§3) Area under the curve (AUC) for acetyl-CoA and CoA were quantitated using RapidFire Integrator software (Agilent). The concentration of CoA was calculated from fraction (CoA) (AUC^CoA/(AUC^Acetyl-CoA + AUC^CoA)) multiplied by the concentration of acetyl-CoA used in acetyltransferase assays.
(§4) The active enzyme concentration for each form of KAT6A was obtained through tight-binding inhibition ([48]) by PF-9363, which binds to the KAT6A MYST domain with an inhibition constant (Ki) of ≈0.3 nM ([6]). Each form of KAT6A was incubated with acetyl-CoA (1–2 μM) and various concentrations of PF-9363 (0–1000 nM) for 15 to 30 min prior to initiating the reaction with H3 (1-21) (5–10 μM). The initial velocity measured at a given concentration of PF-9363 (Vi) was normalized with respect to the initial velocity in the absence of inhibitor (V0) and fit to Equation 1:(1) Vi/V0=1-([E]T+[I]+Ki,app)–([E]T+[I]+Ki,app)^2-4[E]T[I]/2[E]T where Ki,app is the apparent inhibition constant of PF-9363 and [E]T is the active enzyme concentration. The subscript “app” is included in Ki,app since acetyl-CoA competes with PF-9363 for binding to the MYST domain ([6]).
(§5) Reactions were performed under multiple-turnover conditions with excess AcCoA (20 μM) and peptide (1–3000 μM) relative to enzyme (10–100 nM). Reactions were followed for up to 20% product formation and linear fits of the data provided initial velocities (V), which were divided by the enzyme concentration ([E]T) determined from active site titration. V/[E]T was plotted as a function of [peptide] and fit by the Michaelis-Menten equation (Equation 2):(2) V/[E]T=kcat[peptide]/(KM+[peptide]) where kcat is the maximum rate of turnover and KM is the Michaelis-constant. To determine kcat/KM, the steady-state data were fit to a modified form of the Michaelis-Menten equation (Equation 3) ([58]):(3) V/[E]T=(kcat/KM)[peptide]/(1+(kcat/KM)[peptide]/kcat)
(§6) For H3 (10-17), H3 (19-26), and their chimeric peptides, exceedingly high peptide concentrations were needed to saturate acetyltransferase activity. The steady-state data were instead fit to a linear equation to obtain kcat/KM. Finally, for the KAT6A^FL 2- and 4-plexes as well as the MYST 2-plex, steady-state parameters include a superscript “app” to denote that they are apparent values since reactions with these forms of KAT6A may include unbound KAT6A^FL or MYST.

Sequences of proteins named here, by UniProt entry; tags and fusion partners are left off. Residues count along the entry.
UniProt Q92794, whole entry: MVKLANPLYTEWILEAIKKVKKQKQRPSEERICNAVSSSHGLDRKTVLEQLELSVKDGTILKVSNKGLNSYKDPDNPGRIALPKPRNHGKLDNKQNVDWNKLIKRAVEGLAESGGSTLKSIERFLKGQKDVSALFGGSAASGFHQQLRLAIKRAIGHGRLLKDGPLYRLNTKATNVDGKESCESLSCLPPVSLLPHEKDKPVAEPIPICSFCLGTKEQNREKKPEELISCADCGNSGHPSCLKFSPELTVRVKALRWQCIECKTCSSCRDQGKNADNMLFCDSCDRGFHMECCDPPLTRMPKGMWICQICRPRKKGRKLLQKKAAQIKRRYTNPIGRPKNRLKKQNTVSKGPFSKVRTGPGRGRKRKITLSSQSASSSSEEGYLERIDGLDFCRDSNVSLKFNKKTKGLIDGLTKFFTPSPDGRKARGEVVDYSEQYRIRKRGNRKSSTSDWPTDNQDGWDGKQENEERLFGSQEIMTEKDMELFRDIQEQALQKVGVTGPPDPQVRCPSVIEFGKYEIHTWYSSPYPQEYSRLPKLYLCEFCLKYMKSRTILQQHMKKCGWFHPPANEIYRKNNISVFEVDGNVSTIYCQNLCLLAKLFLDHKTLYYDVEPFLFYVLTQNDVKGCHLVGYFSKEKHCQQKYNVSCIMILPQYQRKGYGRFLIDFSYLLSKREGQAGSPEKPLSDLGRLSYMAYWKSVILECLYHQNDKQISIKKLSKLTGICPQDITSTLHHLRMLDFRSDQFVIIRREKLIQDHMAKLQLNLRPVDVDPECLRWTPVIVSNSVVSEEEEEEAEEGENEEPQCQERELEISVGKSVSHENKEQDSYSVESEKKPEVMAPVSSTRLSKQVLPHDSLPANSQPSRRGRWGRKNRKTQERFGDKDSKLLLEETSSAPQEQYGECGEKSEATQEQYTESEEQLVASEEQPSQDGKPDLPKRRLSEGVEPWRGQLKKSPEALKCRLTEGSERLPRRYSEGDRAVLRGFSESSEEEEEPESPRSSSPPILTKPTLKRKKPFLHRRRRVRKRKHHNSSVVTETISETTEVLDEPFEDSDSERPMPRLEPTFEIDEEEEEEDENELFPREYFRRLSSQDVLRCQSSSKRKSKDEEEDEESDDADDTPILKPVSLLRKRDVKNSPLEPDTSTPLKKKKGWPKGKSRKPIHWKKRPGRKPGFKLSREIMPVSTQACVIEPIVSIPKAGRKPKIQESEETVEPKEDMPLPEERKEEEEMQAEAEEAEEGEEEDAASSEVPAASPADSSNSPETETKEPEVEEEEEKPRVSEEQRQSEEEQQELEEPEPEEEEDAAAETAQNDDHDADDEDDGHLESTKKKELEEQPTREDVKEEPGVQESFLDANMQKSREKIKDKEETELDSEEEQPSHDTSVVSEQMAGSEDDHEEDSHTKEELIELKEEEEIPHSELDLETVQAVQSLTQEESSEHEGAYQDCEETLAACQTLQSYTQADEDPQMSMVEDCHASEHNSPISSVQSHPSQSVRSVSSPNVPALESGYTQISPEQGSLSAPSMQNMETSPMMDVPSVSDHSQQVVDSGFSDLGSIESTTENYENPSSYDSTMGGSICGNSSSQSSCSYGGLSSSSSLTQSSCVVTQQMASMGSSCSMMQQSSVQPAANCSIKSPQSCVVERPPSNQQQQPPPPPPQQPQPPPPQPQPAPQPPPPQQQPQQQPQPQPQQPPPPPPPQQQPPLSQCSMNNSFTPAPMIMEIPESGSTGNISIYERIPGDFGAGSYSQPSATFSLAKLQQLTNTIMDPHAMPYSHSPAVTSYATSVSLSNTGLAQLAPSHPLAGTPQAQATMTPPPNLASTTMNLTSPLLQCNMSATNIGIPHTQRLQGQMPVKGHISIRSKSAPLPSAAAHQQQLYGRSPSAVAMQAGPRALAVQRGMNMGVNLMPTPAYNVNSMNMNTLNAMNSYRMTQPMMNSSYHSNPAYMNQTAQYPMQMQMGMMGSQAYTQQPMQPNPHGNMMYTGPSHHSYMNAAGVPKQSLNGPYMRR
UniProt Q92794, 501-784 limits assumed: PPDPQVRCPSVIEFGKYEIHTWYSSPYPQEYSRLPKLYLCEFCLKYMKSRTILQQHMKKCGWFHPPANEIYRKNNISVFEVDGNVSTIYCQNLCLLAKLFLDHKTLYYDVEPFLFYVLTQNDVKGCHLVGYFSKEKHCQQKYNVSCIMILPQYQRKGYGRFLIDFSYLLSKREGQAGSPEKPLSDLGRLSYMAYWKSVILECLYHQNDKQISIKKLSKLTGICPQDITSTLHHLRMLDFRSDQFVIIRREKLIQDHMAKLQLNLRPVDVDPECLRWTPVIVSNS
UniProt P55201, whole entry partner: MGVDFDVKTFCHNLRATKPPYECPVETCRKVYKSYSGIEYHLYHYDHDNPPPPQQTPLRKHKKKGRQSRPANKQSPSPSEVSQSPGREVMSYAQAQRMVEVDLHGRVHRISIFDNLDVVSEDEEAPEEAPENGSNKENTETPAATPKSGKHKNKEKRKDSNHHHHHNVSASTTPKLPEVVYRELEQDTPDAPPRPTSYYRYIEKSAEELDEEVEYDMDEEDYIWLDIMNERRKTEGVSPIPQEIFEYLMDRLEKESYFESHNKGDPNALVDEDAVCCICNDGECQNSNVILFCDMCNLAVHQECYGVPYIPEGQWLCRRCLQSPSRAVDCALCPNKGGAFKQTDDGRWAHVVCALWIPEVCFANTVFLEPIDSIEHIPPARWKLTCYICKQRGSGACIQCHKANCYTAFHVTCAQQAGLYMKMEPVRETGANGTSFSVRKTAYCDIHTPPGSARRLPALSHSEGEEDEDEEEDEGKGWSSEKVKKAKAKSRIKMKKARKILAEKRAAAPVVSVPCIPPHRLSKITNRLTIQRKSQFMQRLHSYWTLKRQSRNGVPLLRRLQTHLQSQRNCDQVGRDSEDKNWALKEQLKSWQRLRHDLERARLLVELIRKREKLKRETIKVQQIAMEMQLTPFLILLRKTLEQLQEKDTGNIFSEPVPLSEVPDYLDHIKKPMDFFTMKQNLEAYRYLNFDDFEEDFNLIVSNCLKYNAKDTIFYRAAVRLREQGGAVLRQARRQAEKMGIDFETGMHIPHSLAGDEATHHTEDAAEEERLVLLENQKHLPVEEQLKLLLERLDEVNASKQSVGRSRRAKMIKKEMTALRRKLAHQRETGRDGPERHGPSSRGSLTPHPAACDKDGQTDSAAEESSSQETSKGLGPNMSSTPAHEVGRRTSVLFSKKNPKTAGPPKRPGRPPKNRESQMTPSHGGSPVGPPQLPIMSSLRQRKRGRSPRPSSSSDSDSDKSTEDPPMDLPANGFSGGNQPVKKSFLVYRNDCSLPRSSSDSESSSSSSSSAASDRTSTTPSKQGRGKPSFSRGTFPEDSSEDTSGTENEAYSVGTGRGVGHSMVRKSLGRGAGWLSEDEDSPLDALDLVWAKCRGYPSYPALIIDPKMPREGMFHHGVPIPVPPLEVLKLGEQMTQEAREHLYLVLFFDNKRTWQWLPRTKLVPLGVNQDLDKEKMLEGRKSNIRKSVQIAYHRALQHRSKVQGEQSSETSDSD
UniProt Q8WYH8, whole entry partner: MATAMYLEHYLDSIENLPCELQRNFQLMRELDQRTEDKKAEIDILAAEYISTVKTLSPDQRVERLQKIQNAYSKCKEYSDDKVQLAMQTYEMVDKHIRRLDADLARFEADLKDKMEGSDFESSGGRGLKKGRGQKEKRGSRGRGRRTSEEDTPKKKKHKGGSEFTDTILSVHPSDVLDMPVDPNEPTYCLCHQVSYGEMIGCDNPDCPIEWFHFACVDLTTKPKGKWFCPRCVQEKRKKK

Experiment [2] concerns the target KAT6A^FL (Homo sapiens, UniProt Q92794). Description: Steady-state acetyltransferase assay with H3 peptides, KAT6A^FL. Particulars: for (kcat/KM): 50 mM HEPES pH 7.5, 5 mM NaCl, 0.1 mM EDTA, 0.002% Tween-20, 20 μM AcCoA, 25 °C, average ± SD of 2 measurements; for Km: KM of peptide at 20 μM AcCoA; for Km / kcat: conditions as E5. The procedure: as §1, §2, §3, §4, §5, §6

In experiment [3] the target is KAT6A^FL 4-plex (KAT6A^FL, BRPF1, ING5, MEAF6) (Homo sapiens, UniProt P55201+Q8WYH8+Q92794+Q9HAF1). Kind of experiment: Steady-state acetyltransferase assay with H3 peptides, KAT6A^FL 4-plex. Particulars: for (kcat/KM)^app: 50 mM HEPES pH 7.5, 5 mM NaCl, 0.1 mM EDTA, 0.002% Tween-20, 20 μM AcCoA, 25 °C, average ± SD of 2 measurements, apparent value; for Km / kcatapp: conditions as E9. As to the method: as §1, §2, §3, §4, §5, §6

The target in experiment [4] is KAT6A^FL-BRPF1 2-protein complex (KAT6A^FL 2-plex) (Homo sapiens, UniProt P55201+Q92794). Kind of experiment: Steady-state acetyltransferase assay with H3 peptides, KAT6A^FL 2-plex. Particulars: for (kcat/KM)^app: 50 mM HEPES pH 7.5, 5 mM NaCl, 0.1 mM EDTA, 0.002% Tween-20, 20 μM AcCoA, 25 °C, average ± SD of 2 measurements, apparent value; for Km / kcatapp: conditions as E13; for fold-change in (kcat/KM)^app for H3.3 (15-36) versus H3 (1-21) or H3 (19-26) versus H3 (10-17): values in parentheses of Table 3. The procedure: as §1, §2, §3, §4, §5, §6

Experiment [5] concerns the target MYST-BRPF1 2-protein complex (MYST 2-plex) (Homo sapiens, UniProt P55201+Q92794). Description: Steady-state acetyltransferase assay with H3 peptides, MYST 2-plex. Particulars: for (kcat/KM)^app: 50 mM HEPES pH 7.5, 5 mM NaCl, 0.1 mM EDTA, 0.002% Tween-20, 20 μM AcCoA, 25 °C, average ± SD of 2 measurements, apparent value; for Km / kcatapp: conditions as E17; for fold-change in (kcat/KM)^app for H3.3 (15-36) versus H3 (1-21) or H3 (19-26) versus H3 (10-17): values in parentheses of Table 3. As to the method: as §1, §2, §3, §4, §5, §6

Several values for one entry are separate records, joined by “and”; a condition that tells them apart may be missing. Identical values can stand only once. Structures were worked out from names or drawings and are uncertain.

As for `C[C@H](NC(=O)[C@H](CCCCN)NC(=O)CNC(=O)CNC(=O)[C@@H](NC(=O)[C@@H](N)CO)[C@@H](C)O)C(=O)N1CCC[C@H]1C(=O)N[C@@H](CCCNC(=N)N)C(=O)O`, in experiment [1], the “(kcat/KM)” value worked out at 31.7 ± 8.3 M⁻¹ s⁻¹, the Km is at least 1000 µM, the kcat is at least 0.0583 s⁻¹ and the “fold-change in (kcat/KM) for H3.3 (15-36) versus H3 (1-21) or H3 (19-26) versus H3 (10-17)” value amounted to 1 fold. In experiment [2], the “fold lower kcat/KM on truncation of H3 (1-21) to H3 (10-17) and H3.3 (15-36) to H3 (19-26)” value stood at 2470 fold; the “(kcat/KM)” value stood at 9.83 ± 5 M⁻¹ s⁻¹; the Km is at least 1000 µM; the kcat is at least 0.0267 s⁻¹. Besides, the “fold-change in (kcat/KM) for H3.3 (15-36) versus H3 (1-21) or H3 (19-26) versus H3 (10-17)” value in experiment [2] (decrease for K23 peptide relative to K14 peptide) was found to be 1 fold. Moreover, in experiment [3], the “fold lower (kcat/KM)^app on truncation of H3 (1-21) to H3 (10-17) and H3.3 (15-36) to H3 (19-26)” value was 1900 fold; the “(kcat/KM)^app” value is 5 ± 1.2 M⁻¹ s⁻¹; the Km was at least 1000 µM; the kcatapp is at least 0.00667 s⁻¹. Besides, the “fold-change in (kcat/KM)^app for H3.3 (15-36) versus H3 (1-21) or H3 (19-26) versus H3 (10-17)” value (from here on “fold-change in (kcat/KM)^app”) in experiment [3] (values in parentheses of Table 3) is reported as 1 fold. Also, in experiment [4], the “fold less efficient acetylation compared to H3 (1-21) and H3.3 (15-36)” value is on record as “approximately 10^3 fold”; the “(kcat/KM)^app” value is 6.5 M⁻¹ s⁻¹ and 6.5 ± 1 M⁻¹ s⁻¹; the Km was at least 1000 µM; the kcatapp is at least 0.012 s⁻¹. Besides, in experiment [4], the “fold-change in (kcat/KM)^app” value amounted to 1 fold. Also, in experiment [5], the “(kcat/KM)^app” value turned out to be 11.2 ± 1 M⁻¹ s⁻¹, the Km is at least 1000 µM, the kcatapp is at least 0.0233 s⁻¹ and the “fold-change in (kcat/KM)^app” value is given as 1 fold.

Take `CC(C)C[C@H](NC(=O)[C@@H](N)CCC(N)=O)C(=O)N[C@@H](C)C(=O)N[C@H](C(=O)N[C@@H](CCCCN)C(=O)N[C@@H](C)C(=O)N[C@@H](C)C(=O)N[C@@H](CCCNC(=N)N)C(=O)O)[C@@H](C)O`: in experiment [1], the “(kcat/KM)” value was determined as 0.683 ± 0.1 M⁻¹ s⁻¹, the Km is at least 1000 µM, the kcat is at least 0.00147 s⁻¹ and the “fold-change in (kcat/KM) for H3.3 (15-36) versus H3 (1-21) or H3 (19-26) versus H3 (10-17)” value is given as 50 fold. Moreover, in experiment [2], the “fold lower kcat/KM on truncation of H3 (1-21) to H3 (10-17) and H3.3 (15-36) to H3 (19-26)” value worked out at 700 fold; the “(kcat/KM)” value stood at 0.267 ± 0.033 M⁻¹ s⁻¹; the Km was at least 1000 µM; the kcat was at least 0.00125 s⁻¹. Further, in experiment [3], the “fold lower (kcat/KM)^app on truncation of H3 (1-21) to H3 (10-17) and H3.3 (15-36) to H3 (19-26)” value is listed as 4930 fold; the “(kcat/KM)^app” value was found to be 18.3 ± 3.3 M⁻¹ s⁻¹; the Km is at least 1000 µM; the kcatapp was at least 0.0333 s⁻¹. In experiment [4], the “fold less efficient acetylation compared to H3 (1-21) and H3.3 (15-36)” value was “approximately 10^3 fold”; the “(kcat/KM)^app” value is 23.3 M⁻¹ s⁻¹ and 23.3 ± 3.3 M⁻¹ s⁻¹; the Km was at least 1000 µM; the kcatapp is at least 0.0367 s⁻¹. Besides, the “fold-change in (kcat/KM)^app” value in experiment [4] worked out at 0.28 fold. Moreover, in experiment [5], the “(kcat/KM)^app” value was 3 ± 1.2 M⁻¹ s⁻¹, the Km is at least 1000 µM, the kcatapp was at least 0.00767 s⁻¹ and the “fold-change in (kcat/KM)^app” value is reported as 4 fold.

What is called Km is the concentration of substrate that gives half-maximal velocity. The term kcat denotes the number of substrate molecules converted per active site and unit of time at saturation.

Source of the values: paper PMC11946513, “Modulation of the substrate preference of a MYST acetyltransferase by a scaffold protein” (The Journal of Biological Chemistry, 2025).
